From the supplement of paper PMC6078165
± gives the standard deviation of the averaged measurements. The reference is the same well before dosing, and untreated signal decays as well.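 Fibroblast labels denote human fibroblasts, mainly primary ones from uterus (C12385, HUF), lung (H6013), bone (Hs27A), adrenal (HADF) and skin (WS1), plus mammary HMF and breast cancer-associated Hs343T. Cancer cells are basal-like or mesenchymal-like triple-negative breast cancer lines. A hit is a response shift exceeding 3x replicate standard deviation. The tissue of the other fibroblasts is not given here.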

Test system: MDAMB468
Experiment: relative JC-1 red fluorescence (viability) vs pre-drug, coculture with fibroblast (fraction); higher = more viable cancer cells
Conditions: 100 µM
Protocol: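 JC-1 labelled TNBC cells cocultured 1:1 (1,500 cells each) with CellTrace Violet stained primary or stromal fibroblasts in 384-well plates in FluoroBrite medium, treated with one of 42 anticancer drugs at 0.1, 1, 10 or 100 uM. JC-1 red fluorescence (mitochondrial integrity in cancer cells only) was read by plate reader every 8 h for 72 h. Values are normalised to each well's pre-drug value. The stock of one drug was tenfold lower, so its dose labels may be too high.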

CCC1=C[C@@H]2CN(C1)Cc1c([nH]c3ccccc13)[C@@](C(=O)OC)(c1cc3c(cc1OC)N(C)[C@H]1[C@@](O)(C(=O)OC)[C@H](OC(C)=O)[C@]4(CC)C=CCN5CC[C@]31[C@@H]54)C2 [Vinorelbine]
relative JC-1 red fluorescence (8 h, coculture fibroblast: C12385): 0.716 ± 0.097
relative JC-1 red fluorescence (8 h, coculture fibroblast: H6013): 0.711 ± 0.053
relative JC-1 red fluorescence (8 h, coculture fibroblast: H6019): 0.77 ± 0.044
relative JC-1 red fluorescence (8 h, coculture fibroblast: H6076): 0.906 ± 0.12
relative JC-1 red fluorescence (8 h, coculture fibroblast: H6231): 0.802 ± 0.035
relative JC-1 red fluorescence (8 h, coculture fibroblast: HADF): 0.753 ± 0.028
relative JC-1 red fluorescence (8 h, coculture fibroblast: HCFa): 0.884 ± 0.018
relative JC-1 red fluorescence (8 h, coculture fibroblast: HCPF): 0.939 ± 0.019
relative JC-1 red fluorescence (8 h, coculture fibroblast: HHSteC): 0.744 ± 0.048
relative JC-1 red fluorescence (8 h, coculture fibroblast: HMF): 0.937 ± 0.055
relative JC-1 red fluorescence (8 h, coculture fibroblast: HPFa): 0.892 ± 0.072
relative JC-1 red fluorescence (8 h, coculture fibroblast: HUF): 0.801 ± 0.092
relative JC-1 red fluorescence (8 h, coculture fibroblast: Hs5): 0.849 ± 0.014
relative JC-1 red fluorescence (8 h, coculture fibroblast: Hs27A): 0.726 ± 0.015
relative JC-1 red fluorescence (8 h, coculture fibroblast: Hs343T): 0.839 ± 0.11
relative JC-1 red fluorescence (8 h, coculture fibroblast: WS1): 0.765 ± 0.089
relative JC-1 red fluorescence (16 h, coculture fibroblast: C12385): 0.645 ± 0.17
relative JC-1 red fluorescence (16 h, coculture fibroblast: H6013): 0.425 ± 0.039
relative JC-1 red fluorescence (16 h, coculture fibroblast: H6019): 0.465 ± 0.021
relative JC-1 red fluorescence (16 h, coculture fibroblast: H6076): 0.648 ± 0.07
relative JC-1 red fluorescence (16 h, coculture fibroblast: H6231): 0.864 ± 0.15
relative JC-1 red fluorescence (16 h, coculture fibroblast: HADF): 0.456 ± 0.037
relative JC-1 red fluorescence (16 h, coculture fibroblast: HCFa): 0.698 ± 0.037
relative JC-1 red fluorescence (16 h, coculture fibroblast: HCPF): 0.776 ± 0.1
relative JC-1 red fluorescence (16 h, coculture fibroblast: HHSteC): 0.4336 ± 0.0041
relative JC-1 red fluorescence (16 h, coculture fibroblast: HMF): 0.846 ± 0.0032
relative JC-1 red fluorescence (16 h, coculture fibroblast: HPFa): 0.881 ± 0.048
relative JC-1 red fluorescence (16 h, coculture fibroblast: HUF): 0.599 ± 0.18
relative JC-1 red fluorescence (16 h, coculture fibroblast: Hs5): 0.582 ± 0.062
relative JC-1 red fluorescence (16 h, coculture fibroblast: Hs27A): 0.431 ± 0.02
relative JC-1 red fluorescence (16 h, coculture fibroblast: Hs343T): 0.853 ± 0.013
relative JC-1 red fluorescence (16 h, coculture fibroblast: WS1): 0.484 ± 0.018
relative JC-1 red fluorescence (24 h, coculture fibroblast: C12385): 0.471 ± 0.14
relative JC-1 red fluorescence (24 h, coculture fibroblast: H6013): 0.339 ± 0.037
relative JC-1 red fluorescence (24 h, coculture fibroblast: H6019): 0.313 ± 0.068
relative JC-1 red fluorescence (24 h, coculture fibroblast: H6076): 0.613 ± 0.3
relative JC-1 red fluorescence (24 h, coculture fibroblast: H6231): 0.684 ± 0.38
relative JC-1 red fluorescence (24 h, coculture fibroblast: HADF): 0.319 ± 0.027
relative JC-1 red fluorescence (24 h, coculture fibroblast: HCFa): 0.535 ± 0.059
relative JC-1 red fluorescence (24 h, coculture fibroblast: HCPF): 0.82 ± 0.066
relative JC-1 red fluorescence (24 h, coculture fibroblast: HHSteC): 0.34 ± 0.015
relative JC-1 red fluorescence (24 h, coculture fibroblast: HMF): 0.828 ± 0.19
relative JC-1 red fluorescence (24 h, coculture fibroblast: HPFa): 0.752 ± 0.13
relative JC-1 red fluorescence (24 h, coculture fibroblast: HUF): 0.378 ± 0.083
relative JC-1 red fluorescence (24 h, coculture fibroblast: Hs5): 0.396 ± 0.0034
relative JC-1 red fluorescence (24 h, coculture fibroblast: Hs27A): 0.346 ± 0.009
relative JC-1 red fluorescence (24 h, coculture fibroblast: Hs343T): 0.816 ± 0.047
relative JC-1 red fluorescence (24 h, coculture fibroblast: WS1): 0.343 ± 0.11
relative JC-1 red fluorescence (32 h, coculture fibroblast: C12385): 0.324 ± 0.059
relative JC-1 red fluorescence (32 h, coculture fibroblast: H6013): 0.278 ± 0.037
relative JC-1 red fluorescence (32 h, coculture fibroblast: H6019): 0.236 ± 0.07
relative JC-1 red fluorescence (32 h, coculture fibroblast: H6076): 0.639 ± 0.4
relative JC-1 red fluorescence (32 h, coculture fibroblast: H6231): 0.667 ± 0.4
relative JC-1 red fluorescence (32 h, coculture fibroblast: HADF): 0.255 ± 0.027
relative JC-1 red fluorescence (32 h, coculture fibroblast: HCFa): 0.439 ± 0.026
relative JC-1 red fluorescence (32 h, coculture fibroblast: HCPF): 0.824 ± 0.062
relative JC-1 red fluorescence (32 h, coculture fibroblast: HHSteC): 0.27 ± 0.015
relative JC-1 red fluorescence (32 h, coculture fibroblast: HMF): 0.85 ± 0.15
relative JC-1 red fluorescence (32 h, coculture fibroblast: HPFa): 0.546 ± 0.14
relative JC-1 red fluorescence (32 h, coculture fibroblast: HUF): 0.275 ± 0.057
relative JC-1 red fluorescence (32 h, coculture fibroblast: Hs5): 0.342 ± 0.013
relative JC-1 red fluorescence (32 h, coculture fibroblast: Hs27A): 0.282 ± 0.017
relative JC-1 red fluorescence (32 h, coculture fibroblast: Hs343T): 0.872 ± 0.074
relative JC-1 red fluorescence (32 h, coculture fibroblast: WS1): 0.275 ± 0.12
relative JC-1 red fluorescence (40 h, coculture fibroblast: C12385): 0.266 ± 0.05
relative JC-1 red fluorescence (40 h, coculture fibroblast: H6013): 0.243 ± 0.034
relative JC-1 red fluorescence (40 h, coculture fibroblast: H6019): 0.186 ± 0.065
relative JC-1 red fluorescence (40 h, coculture fibroblast: H6076): 0.543 ± 0.38
relative JC-1 red fluorescence (40 h, coculture fibroblast: H6231): 0.575 ± 0.43
relative JC-1 red fluorescence (40 h, coculture fibroblast: HADF): 0.215 ± 0.02
relative JC-1 red fluorescence (40 h, coculture fibroblast: HCFa): 0.356 ± 0.076
relative JC-1 red fluorescence (40 h, coculture fibroblast: HCPF): 0.894 ± 0.14
relative JC-1 red fluorescence (40 h, coculture fibroblast: HHSteC): 0.237 ± 0.015
relative JC-1 red fluorescence (40 h, coculture fibroblast: HMF): 0.94 ± 0.082
relative JC-1 red fluorescence (40 h, coculture fibroblast: HPFa): 0.498 ± 0.12
relative JC-1 red fluorescence (40 h, coculture fibroblast: HUF): 0.219 ± 0.051
relative JC-1 red fluorescence (40 h, coculture fibroblast: Hs5): 0.26 ± 0.012
relative JC-1 red fluorescence (40 h, coculture fibroblast: Hs27A): 0.244 ± 0.016
relative JC-1 red fluorescence (40 h, coculture fibroblast: Hs343T): 0.823 ± 0.039
relative JC-1 red fluorescence (40 h, coculture fibroblast: WS1): 0.23 ± 0.11
relative JC-1 red fluorescence (48 h, coculture fibroblast: C12385): 0.241 ± 0.05
relative JC-1 red fluorescence (48 h, coculture fibroblast: H6013): 0.225 ± 0.031
relative JC-1 red fluorescence (48 h, coculture fibroblast: H6019): 0.168 ± 0.067
relative JC-1 red fluorescence (48 h, coculture fibroblast: H6076): 0.493 ± 0.36
relative JC-1 red fluorescence (48 h, coculture fibroblast: H6231): 0.553 ± 0.44
relative JC-1 red fluorescence (48 h, coculture fibroblast: HADF): 0.196 ± 0.021
relative JC-1 red fluorescence (48 h, coculture fibroblast: HCFa): 0.333 ± 0.073
relative JC-1 red fluorescence (48 h, coculture fibroblast: HCPF): 0.866 ± 0.16
relative JC-1 red fluorescence (48 h, coculture fibroblast: HHSteC): 0.229 ± 0.022
relative JC-1 red fluorescence (48 h, coculture fibroblast: HMF): 0.941 ± 0.077
relative JC-1 red fluorescence (48 h, coculture fibroblast: HPFa): 0.473 ± 0.12
relative JC-1 red fluorescence (48 h, coculture fibroblast: HUF): 0.195 ± 0.051
relative JC-1 red fluorescence (48 h, coculture fibroblast: Hs5): 0.223 ± 0.0081
relative JC-1 red fluorescence (48 h, coculture fibroblast: Hs27A): 0.217 ± 0.016
relative JC-1 red fluorescence (48 h, coculture fibroblast: Hs343T): 0.836 ± 0.14
relative JC-1 red fluorescence (48 h, coculture fibroblast: WS1): 0.2 ± 0.11
relative JC-1 red fluorescence (56 h, coculture fibroblast: C12385): 0.191 ± 0.042
relative JC-1 red fluorescence (56 h, coculture fibroblast: H6013): 0.184 ± 0.029
relative JC-1 red fluorescence (56 h, coculture fibroblast: H6019): 0.134 ± 0.06
relative JC-1 red fluorescence (56 h, coculture fibroblast: H6076): 0.549 ± 0.5
relative JC-1 red fluorescence (56 h, coculture fibroblast: H6231): 0.512 ± 0.45
relative JC-1 red fluorescence (56 h, coculture fibroblast: HADF): 0.159 ± 0.021
relative JC-1 red fluorescence (56 h, coculture fibroblast: HCFa): 0.281 ± 0.063
relative JC-1 red fluorescence (56 h, coculture fibroblast: HCPF): 0.965 ± 0.03
relative JC-1 red fluorescence (56 h, coculture fibroblast: HHSteC): 0.168 ± 0.014
relative JC-1 red fluorescence (56 h, coculture fibroblast: HMF): 0.886 ± 0.07
relative JC-1 red fluorescence (56 h, coculture fibroblast: HPFa): 0.397 ± 0.11
relative JC-1 red fluorescence (56 h, coculture fibroblast: HUF): 0.15 ± 0.041
relative JC-1 red fluorescence (56 h, coculture fibroblast: Hs5): 0.191 ± 0.011
relative JC-1 red fluorescence (56 h, coculture fibroblast: Hs27A): 0.185 ± 0.013
relative JC-1 red fluorescence (56 h, coculture fibroblast: Hs343T): 0.975 ± 0.025
relative JC-1 red fluorescence (56 h, coculture fibroblast: WS1): 0.17 ± 0.11
relative JC-1 red fluorescence (64 h, coculture fibroblast: C12385): 0.164 ± 0.042
relative JC-1 red fluorescence (64 h, coculture fibroblast: H6013): 0.158 ± 0.024
relative JC-1 red fluorescence (64 h, coculture fibroblast: H6019): 0.114 ± 0.057
relative JC-1 red fluorescence (64 h, coculture fibroblast: H6076): 0.485 ± 0.45
relative JC-1 red fluorescence (64 h, coculture fibroblast: H6231): 0.49 ± 0.46
relative JC-1 red fluorescence (64 h, coculture fibroblast: HADF): 0.134 ± 0.018
relative JC-1 red fluorescence (64 h, coculture fibroblast: HCFa): 0.244 ± 0.059
relative JC-1 red fluorescence (64 h, coculture fibroblast: HCPF): 0.949 ± 0.023
relative JC-1 red fluorescence (64 h, coculture fibroblast: HHSteC): 0.143 ± 0.013
relative JC-1 red fluorescence (64 h, coculture fibroblast: HMF): 0.858 ± 0.067
relative JC-1 red fluorescence (64 h, coculture fibroblast: HPFa): 0.366 ± 0.11
relative JC-1 red fluorescence (64 h, coculture fibroblast: HUF): 0.13 ± 0.04
relative JC-1 red fluorescence (64 h, coculture fibroblast: Hs5): 0.156 ± 0.013
relative JC-1 red fluorescence (64 h, coculture fibroblast: Hs27A): 0.163 ± 0.012
relative JC-1 red fluorescence (64 h, coculture fibroblast: Hs343T): 0.96 ± 0.025
relative JC-1 red fluorescence (64 h, coculture fibroblast: WS1): 0.141 ± 0.1
relative JC-1 red fluorescence (72 h, coculture fibroblast: C12385): 0.136 ± 0.04
relative JC-1 red fluorescence (72 h, coculture fibroblast: H6013): 0.107 ± 0.019
relative JC-1 red fluorescence (72 h, coculture fibroblast: H6019): 0.0999 ± 0.053
relative JC-1 red fluorescence (72 h, coculture fibroblast: H6076): 0.539 ± 0.51
relative JC-1 red fluorescence (72 h, coculture fibroblast: H6231): 0.453 ± 0.42
relative JC-1 red fluorescence (72 h, coculture fibroblast: HADF): 0.0864 ± 0.014
relative JC-1 red fluorescence (72 h, coculture fibroblast: HCFa): 0.189 ± 0.056
relative JC-1 red fluorescence (72 h, coculture fibroblast: HCPF): 0.938 ± 0.013
relative JC-1 red fluorescence (72 h, coculture fibroblast: HHSteC): 0.0937 ± 0.012
relative JC-1 red fluorescence (72 h, coculture fibroblast: HMF): 0.846 ± 0.076
relative JC-1 red fluorescence (72 h, coculture fibroblast: HPFa): 0.288 ± 0.088
relative JC-1 red fluorescence (72 h, coculture fibroblast: HUF): 0.108 ± 0.039
relative JC-1 red fluorescence (72 h, coculture fibroblast: Hs5): 0.161 ± 0.011
relative JC-1 red fluorescence (72 h, coculture fibroblast: Hs27A): 0.113 ± 0.012
relative JC-1 red fluorescence (72 h, coculture fibroblast: Hs343T): 0.948 ± 0.04
relative JC-1 red fluorescence (72 h, coculture fibroblast: WS1): 0.124 ± 0.1
